Data published in paper PMC2956695.
No constants are given. Whether binding was seen depends on the method and setting. Binding seen in cells or lysates may run through a third protein. Some entries that bind do so weakly or less than the wild type.

By UniProt entry, the sequences of proteins in these tests, tags left out.
UniProt P87315: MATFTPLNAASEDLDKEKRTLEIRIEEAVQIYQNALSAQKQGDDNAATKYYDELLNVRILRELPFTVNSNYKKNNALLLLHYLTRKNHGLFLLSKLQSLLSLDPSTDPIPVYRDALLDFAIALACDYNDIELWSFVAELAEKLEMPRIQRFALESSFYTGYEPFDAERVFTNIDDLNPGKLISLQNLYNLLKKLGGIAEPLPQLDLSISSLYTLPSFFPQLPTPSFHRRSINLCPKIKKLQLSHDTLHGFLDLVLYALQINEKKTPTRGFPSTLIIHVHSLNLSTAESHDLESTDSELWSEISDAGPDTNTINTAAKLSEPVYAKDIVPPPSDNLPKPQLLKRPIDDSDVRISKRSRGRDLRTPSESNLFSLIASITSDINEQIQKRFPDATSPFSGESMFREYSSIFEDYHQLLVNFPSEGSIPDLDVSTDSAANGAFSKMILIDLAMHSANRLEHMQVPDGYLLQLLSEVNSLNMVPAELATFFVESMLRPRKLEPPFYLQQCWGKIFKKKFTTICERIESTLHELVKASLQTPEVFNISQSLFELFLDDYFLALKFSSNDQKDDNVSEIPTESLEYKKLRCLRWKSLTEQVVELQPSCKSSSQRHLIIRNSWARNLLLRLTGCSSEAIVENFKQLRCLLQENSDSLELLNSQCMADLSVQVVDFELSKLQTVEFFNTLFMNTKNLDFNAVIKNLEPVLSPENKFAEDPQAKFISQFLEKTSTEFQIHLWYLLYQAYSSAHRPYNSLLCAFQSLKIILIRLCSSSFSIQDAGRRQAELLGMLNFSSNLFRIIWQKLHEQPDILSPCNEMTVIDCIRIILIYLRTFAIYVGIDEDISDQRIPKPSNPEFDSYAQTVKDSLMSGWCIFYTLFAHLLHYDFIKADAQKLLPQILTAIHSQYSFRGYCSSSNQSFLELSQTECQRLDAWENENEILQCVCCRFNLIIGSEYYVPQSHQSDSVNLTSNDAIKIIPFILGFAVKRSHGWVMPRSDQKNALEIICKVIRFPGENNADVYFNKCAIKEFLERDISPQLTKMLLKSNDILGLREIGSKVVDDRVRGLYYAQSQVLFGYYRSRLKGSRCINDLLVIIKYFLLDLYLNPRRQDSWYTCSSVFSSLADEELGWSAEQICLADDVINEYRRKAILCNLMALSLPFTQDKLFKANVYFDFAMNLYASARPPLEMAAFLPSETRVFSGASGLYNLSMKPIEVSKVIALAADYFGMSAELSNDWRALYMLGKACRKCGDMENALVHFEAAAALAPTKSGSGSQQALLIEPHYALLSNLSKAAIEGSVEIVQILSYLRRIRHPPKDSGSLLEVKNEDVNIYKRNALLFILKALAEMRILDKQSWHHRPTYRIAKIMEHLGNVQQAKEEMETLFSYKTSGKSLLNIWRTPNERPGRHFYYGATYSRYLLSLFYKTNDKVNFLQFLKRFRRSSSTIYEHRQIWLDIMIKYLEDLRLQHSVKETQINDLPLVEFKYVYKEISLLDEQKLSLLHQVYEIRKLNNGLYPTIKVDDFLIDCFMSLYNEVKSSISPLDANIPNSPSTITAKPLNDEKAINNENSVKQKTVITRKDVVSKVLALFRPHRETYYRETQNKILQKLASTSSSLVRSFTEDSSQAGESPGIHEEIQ

T1: Hip4-TAP (S. pombe) (UniProt O43083)
T1 sequence: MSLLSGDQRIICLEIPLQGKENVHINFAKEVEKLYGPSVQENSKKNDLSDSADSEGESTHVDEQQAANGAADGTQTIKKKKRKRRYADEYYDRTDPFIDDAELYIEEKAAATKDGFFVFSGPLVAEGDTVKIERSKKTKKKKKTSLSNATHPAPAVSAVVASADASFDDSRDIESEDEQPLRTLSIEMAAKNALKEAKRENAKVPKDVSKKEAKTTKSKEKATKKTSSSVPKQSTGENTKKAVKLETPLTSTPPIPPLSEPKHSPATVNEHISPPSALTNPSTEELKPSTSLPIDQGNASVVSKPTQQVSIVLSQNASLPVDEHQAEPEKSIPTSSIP

B1: Slm9-Pk (protein, UniProt O74309 1-807)
chain: MHIFVPKLLENHQFSSISSSKDFVAVSAETNVYILSKDFFYPKSSEKRIIQSLNGHKTTHLSFDSPISCIRFTYDGSCLAVATEAGTFLYHSEKWDKAFQVLSGPAYEVCWSQQGHILATSWKQISIYVKDEGLRTETIVKKTEHADSNHQPAVSIEESKEAVESTSQSSEISFKLIKVIEGHHTFVGGLAFDPMGQFLASQSFDHTLKVWKLSTFGVEKSIAKPFEQMPTGNRFLRLSWSPDGAHIASVNAVNEGAYVIAIVQRDTWTYDINLVGHQGPLECATFNPYLYEDPFQKSIIASAAHDGCVSIWNTACARPMAVIHELSCSSFVDLQWSTSGFELYGVSLDGNLMLLQFEESEFGEKMDTIHYPDDLSYFNSSRSKAHVNKNAAADRTTSPTQGQPESPSKSILLRPPPSIASSPESKRRKCPKKFVARPPVPHPTSLYSQIRIGCPYLKPKLVISKSFGTLIVKNHNQLSLLKCTFSNLDGNDCSWFSYLPNAIVLANGTSVFWAVATEDSSIYIYSPAGRLLLPPVVVAATPCFLECCGDFLCCIVSTGLLYIWNIKNFEAIHSPVSTLPLFHSNFSVSKIARGPSIEQFFVTKQGHPVAIMSDGNAFAFIRDSSSWLRVSEGWWMIGSQYWGPLASESNEESPLGFLERCTDEEIIKAGRGRFLQRLVKALMLRQGYDNYEMLVSIRHLENRLMSSAKLDLEYDFRENLILYAKKIAEEGMKDKMDELCKELLGPLRIPHNGIDTVKVGNRLWSPTIAGNNKRNLLKDIIIHTAKYRDMQRITSQYSDLLRRSALL
B2: Hip1-Pk (protein, UniProt P87314 1-932)
chain: MKIKKIPWLGHFDDRGHRLSIFSIHIHPDGSRIATGGLDGTIRIWSTEAINRENENENENEDLPKQLCCMSTHTGTVTSVRFSPNGQYLASGSDDRVVIIWHKEEAIPGLGSTFGSGEKHTENWRSYRRLLGHDNDIQDLCWSYDSQLVVSVGLDSSIIVWNGTTFERLKRIEAHQSHVKGITFDPAGKYFATESDDRTIKVWRVSDFSIEKTITGPFNNSPLSTYFRRPSWSPDGKHIAAPNAMNGPVSCVSIIERGTWTSEINLIGHEGPVEVTAFNPKLFRDKNDKLVCILACGGQDRSLSIWSSALPRPLLSCQNVFQKSIGDVCWSPDGLSLFLCSYDGNVLVCTFEKEEFGDMVSDEEISKALAKYGHGRHGIVLPESAKQLELEETAYAILKKPSSLSTTDPTLVPQSSSTPKSAQKTPQKLPAFLPNRLTAETVDTNKLTASKEQIASPKRPGPSDNGNEIPTKFVQKVTITKEGKKRVAPQLLTTLSATPSTSRLASTQLQHTGSSQLPPQQFSQPINSLPKGGVPILIVGNKTKVNHENDESDQALQEEKIEEGLLKNYYSSLIDSSTSISNINFEAPRYKTNIVHSLNNEQKYVLEVKNGTSEKNPTRIVALENGNTKWMDYLPRPVILVTGSIHFWSIACDDGSLHLYSLTGSRLLPPIMIESKASFLHCNNAYLLCISSSGMVYAWNVVNKTALFTANSLAPILSRVSNNVTIENNSTDIPHVVIASISKEGVPSVTLSTGETYVYSSTMLCWQRITEPWWAIGSREWDSSGLLQSNTQTESQPLKIYEHRTNNVLMDSGRGKLLQKMVADAITEEGYDDFETIVTINHLENKIASARLLKLDDEFLVTSEVYVRLLMHHGLWQKLEEFLGELRTQTKCSIKLSGREVVAKMLVVLRQAVQTDNEFDRANKLIEKYAST

Molecular target: T1, Hip4-TAP (S. pombe)
Assay: co-IP; IgG-coupled Dynal beads added to 1 mg whole cell extract of hip4-TAP strains, 1 hour at 4°C, HB buffer (25mM Tris-HCl pH 7.5, 15 mM EGTA, 15 mM MgCl2, 0.1% NP40, 1 mM DTT, 0.1 mM NaF); western blotting with anti-Pk, anti-FLAG and PAP

| Molecule | binding |
| --- | --- |
| Hip3-3XFLAG (from UniProt P87315 1-1630) | binds |
| B1 | binds |
| B2 | binds |
